Test system: sugarcane
Assay: Example 4: sugar content of sugarcane stem juice after pyribenzoxim back pack spraying, field test in Brazil
Type: in vivo
Conditions: 40 g/ha; initial day of spraying
Method: In accordance with “NORMAS DE AVALIAçÃO DA […] DA CANA-DE-AçÚCAR” used in Brazilian sugar refining plants as Standard for quality evaluation of sugarcane, the analysis on the sugar content in the squeezed juice of sugarcane stem was carried out for Brix value, sugar content in sugarcane (PC), and total sugar amount recoverable from sugarcane stem (ATR) as follows.
Brix was measured according to a digital refractometer. PC was calculated according to the equation (1). ATR was calculated according to the equation (5). […]
Next, 20 individual sugarcanes were cut from each area on the initial day of spraying, after 15 days of spraying, after 30 days of spraying and after 45 days of spraying, and thereafter the stems were squeezed and sugar was recovered from the juice to obtain the yield. Each yield was compared with the yield of the initial day of spraying and the rate of increase (%) was calculated. […]

COc1cc(OC)nc(Oc2cccc(Oc3nc(OC)cc(OC)n3)c2C(=O)ON=C(c2ccccc2)c2ccccc2)n1 [Pyribenzoxim, pyribenzoxim]
Concentration of soluble solid matter, Brix: 16.0%
Total sugar amount recoverable from 1 kg of stem, ATR: 112.2 g
